The text below walks through data of paper PMC4873976, “Structural basis for haem piracy from host haemopexin by Haemophilus influenzae” (Nature Communications, 2016).

Protein sequences, listed by entry. Tags and fused reporters are not part of them. Residues count along the entry.
UniProt P44602, residues 22-905: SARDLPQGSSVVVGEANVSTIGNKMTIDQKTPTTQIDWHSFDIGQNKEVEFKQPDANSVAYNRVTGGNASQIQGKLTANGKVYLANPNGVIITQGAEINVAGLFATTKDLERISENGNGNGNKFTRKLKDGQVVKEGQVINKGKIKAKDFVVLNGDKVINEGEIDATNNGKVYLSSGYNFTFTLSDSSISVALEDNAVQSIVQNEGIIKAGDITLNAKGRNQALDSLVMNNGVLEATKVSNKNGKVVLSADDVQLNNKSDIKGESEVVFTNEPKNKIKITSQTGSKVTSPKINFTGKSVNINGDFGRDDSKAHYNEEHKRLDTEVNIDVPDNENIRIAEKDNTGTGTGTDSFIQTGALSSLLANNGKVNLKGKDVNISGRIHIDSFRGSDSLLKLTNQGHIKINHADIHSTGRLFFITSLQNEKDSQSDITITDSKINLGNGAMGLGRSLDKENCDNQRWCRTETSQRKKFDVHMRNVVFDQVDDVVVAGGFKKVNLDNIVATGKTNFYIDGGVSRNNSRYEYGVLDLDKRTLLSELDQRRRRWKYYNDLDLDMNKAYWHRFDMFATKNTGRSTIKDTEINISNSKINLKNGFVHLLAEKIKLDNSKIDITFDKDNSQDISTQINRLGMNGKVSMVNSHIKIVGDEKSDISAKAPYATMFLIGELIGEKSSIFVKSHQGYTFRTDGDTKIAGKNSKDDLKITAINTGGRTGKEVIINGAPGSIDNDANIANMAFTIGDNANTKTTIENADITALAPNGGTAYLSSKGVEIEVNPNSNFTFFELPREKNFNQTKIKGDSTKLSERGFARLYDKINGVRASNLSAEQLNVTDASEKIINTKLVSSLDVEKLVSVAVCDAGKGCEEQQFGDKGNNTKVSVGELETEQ

This assay concerns the target wild-type HxuA on whole E. coli cells (hxuCBA context) (Haemophilus influenzae) (UniProt P44602). The experiment in a line: far-Western, overlay or dot blot; whole cells expressing HxuA or its mutants spotted on nitrocellulose, incubated 1 h with 0.1 μM biotinylated haemopexin in TBST, revealed with streptavidin-HRP; only the binder purified.

These are yes or no findings as the source states them, for the method shown. Some entries that bind do so weakly or less than the wild type.

B1: biotinylated rabbit haemopexin (protein, UniProt P20058 26-460)
chain: VPLTSAHGNVTEGESGTKPEADVIEQCSDGWSFDATTLDDNGTMLFFKDEFVWKSHRGIRELISERWKNFIGPVDAAFRHGHTSVYLIKGDKVWVYTSEKNEKVYPKSLQDEFPGIPFPLDAAVECHRGECQDEGILFFQGNRKWFWDLTTGTKKERSWPAVGNCTSALRWLGRYYCFQGNQFLRFNPVSGEVPPGYPLDVRDYFLSCPGRGHRSSHRNSTQHGHESTRCDPDLVLSAMVSDNHGATYVFSGSHYWRLDTNRDGWHSWPIAHQWPQGPSTVDAAFSWEDKLYLIQDTKVYVFLTKGGYTLVNGYPKRLEKELGSPPVISLEAVDAAFVCPGSSRLHIMAGRRLWWLDLKSGAQATWTELPWPHEKVDGALCMEKPLGPNSCSTSGPNLYLIHGPNLYCYRHVDKLNAAKNLPQPQRVSRLLGCTH
modifications: biotin (4,5 biotin molecules/haemopexin molecule)
As for B1, the binding entry is “binds”.
